Laboratory results as given in the supplement of paper PMC12819154, “High-throughput peptide-centric local stability assay extends protein–ligand identification to membrane proteins, tissues and bacteria” (Nature Structural & Molecular Biology, 2025).
This is one part of the list. Most values lie at the level of the controls, where differences are scatter.

Chains of the proteins cited; added tags and fusions are not shown. Lines headed by an entry give the natural chain unless they say otherwise; changes in a name come on top.
UniProt Q9UKT9: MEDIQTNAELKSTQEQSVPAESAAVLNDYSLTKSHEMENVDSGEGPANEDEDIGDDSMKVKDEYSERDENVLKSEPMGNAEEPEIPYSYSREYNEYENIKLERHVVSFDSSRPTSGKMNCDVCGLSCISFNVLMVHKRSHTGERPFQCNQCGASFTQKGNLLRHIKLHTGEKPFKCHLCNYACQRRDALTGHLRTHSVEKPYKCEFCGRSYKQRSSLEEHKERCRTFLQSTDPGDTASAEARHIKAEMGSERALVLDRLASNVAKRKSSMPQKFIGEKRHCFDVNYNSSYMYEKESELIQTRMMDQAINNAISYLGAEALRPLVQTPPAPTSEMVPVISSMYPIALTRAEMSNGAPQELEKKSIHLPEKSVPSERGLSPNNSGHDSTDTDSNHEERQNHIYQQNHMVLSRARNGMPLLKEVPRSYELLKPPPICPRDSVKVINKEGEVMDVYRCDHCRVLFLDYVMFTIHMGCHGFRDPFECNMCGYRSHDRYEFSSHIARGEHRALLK
UniProt Q9UMR5: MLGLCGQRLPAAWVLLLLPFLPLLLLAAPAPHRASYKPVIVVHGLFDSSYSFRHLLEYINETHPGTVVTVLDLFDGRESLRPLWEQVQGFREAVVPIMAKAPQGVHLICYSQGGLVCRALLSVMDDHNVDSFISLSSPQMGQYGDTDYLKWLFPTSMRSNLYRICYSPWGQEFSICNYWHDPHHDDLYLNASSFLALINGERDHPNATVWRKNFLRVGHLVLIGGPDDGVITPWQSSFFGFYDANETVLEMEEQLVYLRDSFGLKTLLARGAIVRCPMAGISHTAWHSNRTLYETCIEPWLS
UniProt Q9UPW5: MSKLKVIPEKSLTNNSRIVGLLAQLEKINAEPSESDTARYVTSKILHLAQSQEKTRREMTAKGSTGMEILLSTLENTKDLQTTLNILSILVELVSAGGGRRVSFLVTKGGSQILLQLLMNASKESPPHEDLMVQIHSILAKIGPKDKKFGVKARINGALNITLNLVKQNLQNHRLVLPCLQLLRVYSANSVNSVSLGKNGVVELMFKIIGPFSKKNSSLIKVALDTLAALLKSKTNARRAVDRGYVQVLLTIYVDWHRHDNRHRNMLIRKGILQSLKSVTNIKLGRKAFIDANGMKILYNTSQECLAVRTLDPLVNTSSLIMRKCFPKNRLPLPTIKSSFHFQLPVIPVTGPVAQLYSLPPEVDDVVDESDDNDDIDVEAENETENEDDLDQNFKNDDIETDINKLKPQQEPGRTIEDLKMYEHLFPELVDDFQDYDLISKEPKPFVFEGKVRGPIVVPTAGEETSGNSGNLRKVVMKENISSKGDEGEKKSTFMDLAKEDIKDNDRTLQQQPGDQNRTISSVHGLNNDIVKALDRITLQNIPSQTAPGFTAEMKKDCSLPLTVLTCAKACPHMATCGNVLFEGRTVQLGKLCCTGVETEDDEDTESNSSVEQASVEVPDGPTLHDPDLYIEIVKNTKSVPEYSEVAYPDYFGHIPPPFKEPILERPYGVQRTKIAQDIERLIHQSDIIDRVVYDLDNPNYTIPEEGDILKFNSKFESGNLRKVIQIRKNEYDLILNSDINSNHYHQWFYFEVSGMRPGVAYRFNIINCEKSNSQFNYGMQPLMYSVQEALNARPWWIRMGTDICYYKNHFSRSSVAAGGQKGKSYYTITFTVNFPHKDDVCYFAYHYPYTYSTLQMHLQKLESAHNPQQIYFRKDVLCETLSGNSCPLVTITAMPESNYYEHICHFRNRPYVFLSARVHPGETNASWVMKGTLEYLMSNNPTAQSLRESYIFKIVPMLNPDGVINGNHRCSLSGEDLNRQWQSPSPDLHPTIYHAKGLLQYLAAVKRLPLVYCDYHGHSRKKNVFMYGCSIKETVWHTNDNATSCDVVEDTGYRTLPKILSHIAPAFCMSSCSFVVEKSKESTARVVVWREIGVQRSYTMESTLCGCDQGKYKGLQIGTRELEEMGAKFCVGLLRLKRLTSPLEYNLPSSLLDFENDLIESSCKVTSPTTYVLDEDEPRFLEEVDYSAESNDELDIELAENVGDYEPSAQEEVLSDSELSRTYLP
UniProt Q9UPS8: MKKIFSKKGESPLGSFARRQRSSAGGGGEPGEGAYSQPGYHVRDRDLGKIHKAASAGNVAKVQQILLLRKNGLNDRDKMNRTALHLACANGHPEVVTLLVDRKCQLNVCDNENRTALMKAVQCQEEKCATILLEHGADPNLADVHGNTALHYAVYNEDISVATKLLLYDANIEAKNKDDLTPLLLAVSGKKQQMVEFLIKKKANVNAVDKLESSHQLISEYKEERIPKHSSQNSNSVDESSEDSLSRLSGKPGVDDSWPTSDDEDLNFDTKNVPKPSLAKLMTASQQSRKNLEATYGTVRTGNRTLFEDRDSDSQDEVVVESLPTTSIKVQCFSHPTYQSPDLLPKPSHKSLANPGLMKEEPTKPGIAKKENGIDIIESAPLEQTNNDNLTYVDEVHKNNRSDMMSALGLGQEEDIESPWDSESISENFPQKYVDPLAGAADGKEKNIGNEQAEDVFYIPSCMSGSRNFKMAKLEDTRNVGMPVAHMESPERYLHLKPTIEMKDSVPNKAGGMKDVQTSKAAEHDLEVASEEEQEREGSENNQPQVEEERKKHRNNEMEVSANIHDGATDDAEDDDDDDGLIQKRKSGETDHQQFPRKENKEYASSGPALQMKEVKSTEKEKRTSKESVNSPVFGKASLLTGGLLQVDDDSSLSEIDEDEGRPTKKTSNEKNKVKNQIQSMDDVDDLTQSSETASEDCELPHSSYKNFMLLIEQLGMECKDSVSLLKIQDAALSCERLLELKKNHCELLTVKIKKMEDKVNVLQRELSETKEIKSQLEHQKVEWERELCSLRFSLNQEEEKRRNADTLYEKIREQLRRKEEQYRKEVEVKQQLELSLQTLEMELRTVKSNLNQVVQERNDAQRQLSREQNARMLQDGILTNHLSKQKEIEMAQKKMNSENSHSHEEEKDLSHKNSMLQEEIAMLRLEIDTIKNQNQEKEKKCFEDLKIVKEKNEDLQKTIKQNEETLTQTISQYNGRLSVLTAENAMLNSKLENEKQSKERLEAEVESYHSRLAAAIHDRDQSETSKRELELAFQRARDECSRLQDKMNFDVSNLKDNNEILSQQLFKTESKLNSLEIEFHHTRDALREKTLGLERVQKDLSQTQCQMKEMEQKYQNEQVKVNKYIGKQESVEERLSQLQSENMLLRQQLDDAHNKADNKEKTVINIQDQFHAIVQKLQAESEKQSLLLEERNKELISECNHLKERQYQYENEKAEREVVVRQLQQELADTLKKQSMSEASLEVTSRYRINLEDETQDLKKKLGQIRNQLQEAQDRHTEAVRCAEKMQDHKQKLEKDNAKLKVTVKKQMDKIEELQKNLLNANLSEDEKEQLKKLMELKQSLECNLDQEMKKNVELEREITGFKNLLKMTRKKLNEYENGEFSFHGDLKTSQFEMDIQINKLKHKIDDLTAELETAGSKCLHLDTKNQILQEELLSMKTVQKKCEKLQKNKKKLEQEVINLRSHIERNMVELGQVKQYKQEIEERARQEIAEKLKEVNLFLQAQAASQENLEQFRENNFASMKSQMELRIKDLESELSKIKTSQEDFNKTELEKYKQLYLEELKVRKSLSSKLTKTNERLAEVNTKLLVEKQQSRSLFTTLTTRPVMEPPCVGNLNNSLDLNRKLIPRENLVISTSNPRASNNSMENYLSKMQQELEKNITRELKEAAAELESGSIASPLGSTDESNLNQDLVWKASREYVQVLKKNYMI
UniProt Q9UM00: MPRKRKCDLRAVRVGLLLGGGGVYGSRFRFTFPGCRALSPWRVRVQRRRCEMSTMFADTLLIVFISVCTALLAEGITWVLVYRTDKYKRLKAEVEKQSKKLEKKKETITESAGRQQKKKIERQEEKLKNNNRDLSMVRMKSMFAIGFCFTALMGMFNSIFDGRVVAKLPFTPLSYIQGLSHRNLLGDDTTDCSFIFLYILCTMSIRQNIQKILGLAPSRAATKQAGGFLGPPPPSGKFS
UniProt Q9Y324: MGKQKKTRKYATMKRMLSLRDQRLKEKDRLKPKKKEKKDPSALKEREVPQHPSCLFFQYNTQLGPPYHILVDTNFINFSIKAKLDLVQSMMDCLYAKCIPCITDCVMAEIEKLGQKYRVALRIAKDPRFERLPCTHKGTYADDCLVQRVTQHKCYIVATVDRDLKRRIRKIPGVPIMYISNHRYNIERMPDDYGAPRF
UniProt Q9Y2G3: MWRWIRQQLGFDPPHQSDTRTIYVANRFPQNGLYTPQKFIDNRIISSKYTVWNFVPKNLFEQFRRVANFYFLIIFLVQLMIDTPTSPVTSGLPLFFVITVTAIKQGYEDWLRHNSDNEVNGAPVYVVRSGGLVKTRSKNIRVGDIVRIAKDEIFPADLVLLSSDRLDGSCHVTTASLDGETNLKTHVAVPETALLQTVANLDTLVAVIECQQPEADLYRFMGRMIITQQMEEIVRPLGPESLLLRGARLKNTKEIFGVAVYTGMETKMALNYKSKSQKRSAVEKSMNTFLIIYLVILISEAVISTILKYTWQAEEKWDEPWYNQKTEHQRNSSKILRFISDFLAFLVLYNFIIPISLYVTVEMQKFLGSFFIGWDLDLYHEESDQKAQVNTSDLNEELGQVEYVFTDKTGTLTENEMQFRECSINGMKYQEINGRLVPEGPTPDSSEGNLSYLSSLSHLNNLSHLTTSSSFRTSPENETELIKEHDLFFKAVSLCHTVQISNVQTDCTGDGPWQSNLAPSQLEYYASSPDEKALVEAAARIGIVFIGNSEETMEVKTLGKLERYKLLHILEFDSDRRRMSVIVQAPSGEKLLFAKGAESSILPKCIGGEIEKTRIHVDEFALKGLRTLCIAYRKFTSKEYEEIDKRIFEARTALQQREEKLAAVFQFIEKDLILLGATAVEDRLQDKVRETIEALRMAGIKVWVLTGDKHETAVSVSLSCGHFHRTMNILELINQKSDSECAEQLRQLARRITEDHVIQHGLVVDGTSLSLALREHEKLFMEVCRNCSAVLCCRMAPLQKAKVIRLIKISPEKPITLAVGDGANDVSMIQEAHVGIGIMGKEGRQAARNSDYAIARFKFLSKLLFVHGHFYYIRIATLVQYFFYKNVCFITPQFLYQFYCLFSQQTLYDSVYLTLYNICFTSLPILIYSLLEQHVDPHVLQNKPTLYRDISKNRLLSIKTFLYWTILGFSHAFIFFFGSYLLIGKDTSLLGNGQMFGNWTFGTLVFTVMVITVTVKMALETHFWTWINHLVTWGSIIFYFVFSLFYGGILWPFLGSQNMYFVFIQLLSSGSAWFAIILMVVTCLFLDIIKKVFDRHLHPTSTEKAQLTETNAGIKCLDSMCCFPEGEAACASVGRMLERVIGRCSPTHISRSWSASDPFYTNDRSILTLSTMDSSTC
UniProt Q9ULW3: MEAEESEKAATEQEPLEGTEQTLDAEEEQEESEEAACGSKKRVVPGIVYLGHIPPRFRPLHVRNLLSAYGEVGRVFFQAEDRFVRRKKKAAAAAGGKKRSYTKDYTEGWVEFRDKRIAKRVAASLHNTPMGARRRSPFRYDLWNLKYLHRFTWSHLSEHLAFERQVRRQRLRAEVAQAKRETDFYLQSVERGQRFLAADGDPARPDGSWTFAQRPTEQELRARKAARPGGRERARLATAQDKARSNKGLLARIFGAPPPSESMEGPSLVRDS
UniProt Q9Y230, whole entry: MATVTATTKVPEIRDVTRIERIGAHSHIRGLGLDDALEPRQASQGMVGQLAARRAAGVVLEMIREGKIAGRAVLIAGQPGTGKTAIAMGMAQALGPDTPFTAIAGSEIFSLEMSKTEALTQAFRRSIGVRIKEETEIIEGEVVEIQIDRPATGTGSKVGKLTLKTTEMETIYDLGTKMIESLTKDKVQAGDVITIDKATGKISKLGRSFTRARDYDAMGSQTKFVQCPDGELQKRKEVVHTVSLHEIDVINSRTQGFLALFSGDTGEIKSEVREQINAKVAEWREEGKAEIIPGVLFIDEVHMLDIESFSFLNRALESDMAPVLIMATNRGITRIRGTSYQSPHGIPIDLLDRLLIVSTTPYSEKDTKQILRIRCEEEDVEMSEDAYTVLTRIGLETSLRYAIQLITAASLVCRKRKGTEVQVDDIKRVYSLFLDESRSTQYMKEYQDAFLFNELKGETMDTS
UniProt Q9Y385: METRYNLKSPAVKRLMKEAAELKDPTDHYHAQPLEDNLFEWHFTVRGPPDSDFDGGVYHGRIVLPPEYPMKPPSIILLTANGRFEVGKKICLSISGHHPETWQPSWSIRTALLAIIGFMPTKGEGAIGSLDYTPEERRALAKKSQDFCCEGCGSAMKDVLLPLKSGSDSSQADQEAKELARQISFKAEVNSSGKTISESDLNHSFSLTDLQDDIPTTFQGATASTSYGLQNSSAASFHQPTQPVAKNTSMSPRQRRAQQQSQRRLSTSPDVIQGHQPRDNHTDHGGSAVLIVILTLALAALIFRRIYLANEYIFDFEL
UniProt Q9UMY4: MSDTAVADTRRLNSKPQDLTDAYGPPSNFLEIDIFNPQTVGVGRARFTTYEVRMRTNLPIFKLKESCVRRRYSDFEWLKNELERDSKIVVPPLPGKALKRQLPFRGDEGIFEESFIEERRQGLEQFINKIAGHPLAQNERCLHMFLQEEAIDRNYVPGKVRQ

compound: CN[C@@H]1C[C@H]2O[C@@](C)([C@@H]1OC)n1c3ccccc3c3c4c(c5c6ccccc6n2c5c31)C(=O)NC4 [staurosporine]; assay: log2 fold change of tryptic peptide abundance, ligand vs vehicle (limited proteolysis) (log2 ratio); higher = more trypsin-susceptible (destabilized); settings: ligand concentration: 20 uM; sample: K562 cleared lysate; digestion: 4 min, 22 C (HT-PELSA RT4min, Orbitrap Astral)

Target | log2 fold change
ZNF281 (peptide sequence: DVLLSSSSR, peptide start residue: 194) (UniProt Q9Y2X9) | 0.257
UniProt Q9UKT9 (peptide sequence: SSLEEHKER, peptide start residue: 214) | 0.618
FARSA (peptide sequence: LLAEVTLK, peptide start residue: 164) (UniProt Q9Y285) | -0.216
L1RE1 (peptide sequence: REWGPIFNILK, peptide start residue: 262) (UniProt Q9UN81) | -0.467
PPT2 (peptide sequence: WLFPTSMR, peptide start residue: 151) (UniProt Q9UMR5) | -0.085
SNX24 (peptide sequence: KHFVEKR, peptide start residue: 32) (UniProt Q9Y343) | 0.364
AGTPBP1 (peptide sequence: INAEPSESDTAR, peptide start residue: 28) (UniProt Q9UPW5) | -0.147
CASP8AP2 (peptide sequence: DVFLPNSAHSTSK, peptide start residue: 888) (UniProt Q9UKL3) | -0.426
ANKRD26 (peptide sequence: NLLNANLSEDEKEQLKK, peptide start residue: 1318) (UniProt Q9UPS8) | 0.311
NUP50 (peptide sequence: LQQESTFLFHGNK, peptide start residue: 230) (UniProt Q9UKX7) | -0.15
PTBP2 (peptide sequence: DFGNSPLHR, peptide start residue: 430) (UniProt Q9UKA9) | -0.319
UniProt Q9Y242 (peptide sequence: VDKAPLTPTGNR, peptide start residue: 257) | 0.457
TMCO1 (peptide sequence: ETITESAGR, peptide start residue: 106) (UniProt Q9UM00) | -0.156
SLC39A10 (peptide sequence: NNAIISLR, peptide start residue: 318) (UniProt Q9ULF5) | -0.246
BAIAP2 (peptide sequence: CQAELKK, peptide start residue: 137) (UniProt Q9UQB8) | -0.403
ISY1 (peptide sequence: YASETLQAQSEEAR, peptide start residue: 267) (UniProt Q9ULR0) | -0.504
GMEB2 (peptide sequence: FVCPGINVK, peptide start residue: 111) (UniProt Q9UKD1) | 0.109
YEATS2 (peptide sequence: TVPATSQLSKPGTTMLR, peptide start residue: 931) (UniProt Q9ULM3) | 0.322

Target | log2 fold change
CORO1C (peptide sequence: NILDSKPTANKK, peptide start residue: 408) (UniProt Q9ULV4) | 0.0765
FCF1 (peptide sequence: GTYADDCLVQR, peptide start residue: 138) (UniProt Q9Y324) | 0.321
ATP11B (peptide sequence: CSPTHISR, peptide start residue: 1144) (UniProt Q9Y2G3) | 0.0488
ABT1 (peptide sequence: LRAEVAQAK, peptide start residue: 171) (UniProt Q9ULW3) | 0.25
ZHX1 (peptide sequence: INNWDRGPSLIK, peptide start residue: 766) (UniProt Q9UKY1) | 0.169
CCPG1 (peptide sequence: TVSASESEDR, peptide start residue: 184) (UniProt Q9ULG6) | -0.0836
BTRC (peptide sequence: TYTYISR, peptide start residue: 599) (UniProt Q9Y297) | -0.145
POMP (peptide sequence: NIQGLFAPLK, peptide start residue: 69) (UniProt Q9Y244) | 0.234
RUVBL2 (peptide sequence: KEVVHTVSLHEIDVINSR, peptide start residue: 236) (UniProt Q9Y230) | 0.325
ASAP1 (peptide sequence: TLSDPPSPLPHGPPNK, peptide start residue: 837) (UniProt Q9ULH1) | -0.222
PACSIN3 (peptide sequence: ADSAVSQEQLR, peptide start residue: 176) (UniProt Q9UKS6) | 0.208
UniProt Q9ULH7 (peptide sequence: MQLEVEKR, peptide start residue: 589) | 0.354
TIMELESS (peptide sequence: KQIIHHLVQMGLADSVK, peptide start residue: 861) (UniProt Q9UNS1) | 0.567
SCML2 (peptide sequence: LTGDVLQPPGTSVPIVK, peptide start residue: 232) (UniProt Q9UQR0) | -0.421
APPL1 (peptide sequence: TNPFGESGGSTK, peptide start residue: 479) (UniProt Q9UKG1) | -0.122
UniProt Q9UPN6 (peptide sequence: KGDNVPQVNGENTER, peptide start residue: 1207) | -0.143
UBE2J1 (peptide sequence: LSTSPDVIQGHQPR, peptide start residue: 265) (UniProt Q9Y385) | -0.156
SNX12 (peptide sequence: NYVPGKVRQ, peptide start residue: 154) (UniProt Q9UMY4) | 0.59

9 successive entries out of the list so far, quoted:
Target | log2 fold change
ANKRD26 (peptide sequence: NLLNANLSEDEKEQLKK, peptide start residue: 1318) (UniProt Q9UPS8) | 0.311
NUP50 (peptide sequence: LQQESTFLFHGNK, peptide start residue: 230) (UniProt Q9UKX7) | -0.15
PTBP2 (peptide sequence: DFGNSPLHR, peptide start residue: 430) (UniProt Q9UKA9) | -0.319
UniProt Q9Y242 (peptide sequence: VDKAPLTPTGNR, peptide start residue: 257) | 0.457
TMCO1 (peptide sequence: ETITESAGR, peptide start residue: 106) (UniProt Q9UM00) | -0.156
SLC39A10 (peptide sequence: NNAIISLR, peptide start residue: 318) (UniProt Q9ULF5) | -0.246
BAIAP2 (peptide sequence: CQAELKK, peptide start residue: 137) (UniProt Q9UQB8) | -0.403
ISY1 (peptide sequence: YASETLQAQSEEAR, peptide start residue: 267) (UniProt Q9ULR0) | -0.504
GMEB2 (peptide sequence: FVCPGINVK, peptide start residue: 111) (UniProt Q9UKD1) | 0.109
